Reference: PMC4267622, “Pin1-mediated Sp1 phosphorylation by CDK1 increases Sp1 stability and decreases its DNA-binding activity during mitosis” (Nucleic Acids Research, 2014)
These are yes or no findings as the source states them, for the method shown. In cells and extracts the contact can be indirect. A yes stands for co-enrichment or nearness to the bait. Other partners may have been found.

The chains behind the UniProt entries cited, without tags or fusion partners. Residues count along the entry.
UniProt P11440: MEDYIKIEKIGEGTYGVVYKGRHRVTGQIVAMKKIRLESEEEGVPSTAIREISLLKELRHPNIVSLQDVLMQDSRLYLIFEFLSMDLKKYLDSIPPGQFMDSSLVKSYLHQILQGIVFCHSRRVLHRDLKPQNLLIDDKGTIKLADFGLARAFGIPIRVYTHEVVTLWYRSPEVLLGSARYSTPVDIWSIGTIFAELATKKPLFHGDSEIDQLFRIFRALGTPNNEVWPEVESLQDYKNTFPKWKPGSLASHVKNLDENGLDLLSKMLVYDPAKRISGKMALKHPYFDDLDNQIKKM
UniProt P11276, residues 33-2477: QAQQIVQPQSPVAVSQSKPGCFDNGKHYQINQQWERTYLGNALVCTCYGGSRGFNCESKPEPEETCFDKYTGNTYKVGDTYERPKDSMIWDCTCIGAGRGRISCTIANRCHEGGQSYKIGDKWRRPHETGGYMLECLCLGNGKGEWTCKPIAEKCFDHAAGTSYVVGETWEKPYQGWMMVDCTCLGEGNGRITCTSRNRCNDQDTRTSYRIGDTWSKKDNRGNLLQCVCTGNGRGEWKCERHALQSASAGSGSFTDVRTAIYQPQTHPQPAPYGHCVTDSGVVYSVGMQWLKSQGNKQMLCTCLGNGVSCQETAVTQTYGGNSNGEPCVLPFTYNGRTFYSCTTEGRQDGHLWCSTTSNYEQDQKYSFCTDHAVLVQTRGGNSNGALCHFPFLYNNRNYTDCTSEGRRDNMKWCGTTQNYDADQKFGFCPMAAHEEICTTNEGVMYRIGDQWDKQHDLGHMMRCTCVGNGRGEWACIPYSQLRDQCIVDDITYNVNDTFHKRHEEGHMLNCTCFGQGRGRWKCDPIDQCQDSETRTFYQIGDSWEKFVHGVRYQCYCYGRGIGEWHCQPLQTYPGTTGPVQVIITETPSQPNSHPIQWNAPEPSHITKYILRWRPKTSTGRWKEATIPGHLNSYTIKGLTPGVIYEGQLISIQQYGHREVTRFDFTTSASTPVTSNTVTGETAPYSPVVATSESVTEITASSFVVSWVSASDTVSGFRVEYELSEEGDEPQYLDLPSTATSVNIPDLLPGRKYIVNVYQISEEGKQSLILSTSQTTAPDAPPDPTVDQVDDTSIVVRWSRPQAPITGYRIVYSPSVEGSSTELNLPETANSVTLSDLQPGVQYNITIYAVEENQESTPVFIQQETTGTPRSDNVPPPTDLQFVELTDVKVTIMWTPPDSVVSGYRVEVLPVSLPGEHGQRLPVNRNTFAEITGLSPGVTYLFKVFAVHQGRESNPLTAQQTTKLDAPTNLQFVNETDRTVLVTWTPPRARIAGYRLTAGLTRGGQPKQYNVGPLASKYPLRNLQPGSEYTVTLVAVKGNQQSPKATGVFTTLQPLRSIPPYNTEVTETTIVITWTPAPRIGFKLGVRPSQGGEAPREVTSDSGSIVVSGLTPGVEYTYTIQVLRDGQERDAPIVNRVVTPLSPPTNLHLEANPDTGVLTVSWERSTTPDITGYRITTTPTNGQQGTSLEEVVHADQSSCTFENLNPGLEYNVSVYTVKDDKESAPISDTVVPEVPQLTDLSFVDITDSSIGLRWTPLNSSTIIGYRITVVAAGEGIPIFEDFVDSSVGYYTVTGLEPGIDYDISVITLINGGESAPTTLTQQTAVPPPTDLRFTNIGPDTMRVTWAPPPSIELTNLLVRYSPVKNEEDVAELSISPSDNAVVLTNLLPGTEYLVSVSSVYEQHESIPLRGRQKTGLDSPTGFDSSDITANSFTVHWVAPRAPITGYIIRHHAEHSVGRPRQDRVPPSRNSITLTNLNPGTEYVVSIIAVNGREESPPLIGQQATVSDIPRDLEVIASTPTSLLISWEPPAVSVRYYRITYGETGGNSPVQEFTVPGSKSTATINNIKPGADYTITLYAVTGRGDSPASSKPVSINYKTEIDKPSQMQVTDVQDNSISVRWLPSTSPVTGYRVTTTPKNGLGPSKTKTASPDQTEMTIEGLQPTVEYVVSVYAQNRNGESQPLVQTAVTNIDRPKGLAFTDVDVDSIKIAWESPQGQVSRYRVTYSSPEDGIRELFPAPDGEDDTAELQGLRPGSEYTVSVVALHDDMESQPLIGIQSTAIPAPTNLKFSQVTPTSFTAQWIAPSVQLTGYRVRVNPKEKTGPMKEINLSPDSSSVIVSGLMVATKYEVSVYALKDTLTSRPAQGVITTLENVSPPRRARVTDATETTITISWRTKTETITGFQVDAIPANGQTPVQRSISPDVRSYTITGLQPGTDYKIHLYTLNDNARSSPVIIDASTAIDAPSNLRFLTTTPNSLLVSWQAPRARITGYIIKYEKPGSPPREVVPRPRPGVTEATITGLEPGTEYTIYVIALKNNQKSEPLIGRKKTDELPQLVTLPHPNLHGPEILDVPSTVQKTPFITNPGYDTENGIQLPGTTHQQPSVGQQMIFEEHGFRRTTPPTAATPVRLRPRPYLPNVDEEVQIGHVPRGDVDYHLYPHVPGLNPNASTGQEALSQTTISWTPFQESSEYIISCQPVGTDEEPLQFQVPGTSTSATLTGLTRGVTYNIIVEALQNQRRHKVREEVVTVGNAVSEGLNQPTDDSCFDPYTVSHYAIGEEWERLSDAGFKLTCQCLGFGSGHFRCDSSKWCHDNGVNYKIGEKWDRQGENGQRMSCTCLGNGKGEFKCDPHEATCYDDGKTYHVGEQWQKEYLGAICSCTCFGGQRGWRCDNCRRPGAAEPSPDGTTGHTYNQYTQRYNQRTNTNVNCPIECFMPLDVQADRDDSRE
UniProt Q61545: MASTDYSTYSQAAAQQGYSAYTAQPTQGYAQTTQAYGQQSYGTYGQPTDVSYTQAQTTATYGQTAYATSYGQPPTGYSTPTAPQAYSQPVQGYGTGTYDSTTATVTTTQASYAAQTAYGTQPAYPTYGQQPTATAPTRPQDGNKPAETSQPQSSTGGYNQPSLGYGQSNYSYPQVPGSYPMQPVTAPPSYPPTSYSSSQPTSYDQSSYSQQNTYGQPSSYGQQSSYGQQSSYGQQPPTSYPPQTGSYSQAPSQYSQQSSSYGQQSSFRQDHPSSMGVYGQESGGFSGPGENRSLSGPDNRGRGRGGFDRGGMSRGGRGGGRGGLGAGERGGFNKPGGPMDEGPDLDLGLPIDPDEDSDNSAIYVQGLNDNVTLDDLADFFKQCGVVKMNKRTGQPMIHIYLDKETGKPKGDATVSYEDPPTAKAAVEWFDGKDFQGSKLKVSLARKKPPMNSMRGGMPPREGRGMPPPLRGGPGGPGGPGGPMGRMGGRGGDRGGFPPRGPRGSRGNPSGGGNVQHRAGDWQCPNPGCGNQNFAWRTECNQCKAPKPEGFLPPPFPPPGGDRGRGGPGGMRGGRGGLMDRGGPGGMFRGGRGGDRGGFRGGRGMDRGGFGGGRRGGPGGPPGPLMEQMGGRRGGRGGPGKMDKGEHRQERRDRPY
UniProt E9Q7G0: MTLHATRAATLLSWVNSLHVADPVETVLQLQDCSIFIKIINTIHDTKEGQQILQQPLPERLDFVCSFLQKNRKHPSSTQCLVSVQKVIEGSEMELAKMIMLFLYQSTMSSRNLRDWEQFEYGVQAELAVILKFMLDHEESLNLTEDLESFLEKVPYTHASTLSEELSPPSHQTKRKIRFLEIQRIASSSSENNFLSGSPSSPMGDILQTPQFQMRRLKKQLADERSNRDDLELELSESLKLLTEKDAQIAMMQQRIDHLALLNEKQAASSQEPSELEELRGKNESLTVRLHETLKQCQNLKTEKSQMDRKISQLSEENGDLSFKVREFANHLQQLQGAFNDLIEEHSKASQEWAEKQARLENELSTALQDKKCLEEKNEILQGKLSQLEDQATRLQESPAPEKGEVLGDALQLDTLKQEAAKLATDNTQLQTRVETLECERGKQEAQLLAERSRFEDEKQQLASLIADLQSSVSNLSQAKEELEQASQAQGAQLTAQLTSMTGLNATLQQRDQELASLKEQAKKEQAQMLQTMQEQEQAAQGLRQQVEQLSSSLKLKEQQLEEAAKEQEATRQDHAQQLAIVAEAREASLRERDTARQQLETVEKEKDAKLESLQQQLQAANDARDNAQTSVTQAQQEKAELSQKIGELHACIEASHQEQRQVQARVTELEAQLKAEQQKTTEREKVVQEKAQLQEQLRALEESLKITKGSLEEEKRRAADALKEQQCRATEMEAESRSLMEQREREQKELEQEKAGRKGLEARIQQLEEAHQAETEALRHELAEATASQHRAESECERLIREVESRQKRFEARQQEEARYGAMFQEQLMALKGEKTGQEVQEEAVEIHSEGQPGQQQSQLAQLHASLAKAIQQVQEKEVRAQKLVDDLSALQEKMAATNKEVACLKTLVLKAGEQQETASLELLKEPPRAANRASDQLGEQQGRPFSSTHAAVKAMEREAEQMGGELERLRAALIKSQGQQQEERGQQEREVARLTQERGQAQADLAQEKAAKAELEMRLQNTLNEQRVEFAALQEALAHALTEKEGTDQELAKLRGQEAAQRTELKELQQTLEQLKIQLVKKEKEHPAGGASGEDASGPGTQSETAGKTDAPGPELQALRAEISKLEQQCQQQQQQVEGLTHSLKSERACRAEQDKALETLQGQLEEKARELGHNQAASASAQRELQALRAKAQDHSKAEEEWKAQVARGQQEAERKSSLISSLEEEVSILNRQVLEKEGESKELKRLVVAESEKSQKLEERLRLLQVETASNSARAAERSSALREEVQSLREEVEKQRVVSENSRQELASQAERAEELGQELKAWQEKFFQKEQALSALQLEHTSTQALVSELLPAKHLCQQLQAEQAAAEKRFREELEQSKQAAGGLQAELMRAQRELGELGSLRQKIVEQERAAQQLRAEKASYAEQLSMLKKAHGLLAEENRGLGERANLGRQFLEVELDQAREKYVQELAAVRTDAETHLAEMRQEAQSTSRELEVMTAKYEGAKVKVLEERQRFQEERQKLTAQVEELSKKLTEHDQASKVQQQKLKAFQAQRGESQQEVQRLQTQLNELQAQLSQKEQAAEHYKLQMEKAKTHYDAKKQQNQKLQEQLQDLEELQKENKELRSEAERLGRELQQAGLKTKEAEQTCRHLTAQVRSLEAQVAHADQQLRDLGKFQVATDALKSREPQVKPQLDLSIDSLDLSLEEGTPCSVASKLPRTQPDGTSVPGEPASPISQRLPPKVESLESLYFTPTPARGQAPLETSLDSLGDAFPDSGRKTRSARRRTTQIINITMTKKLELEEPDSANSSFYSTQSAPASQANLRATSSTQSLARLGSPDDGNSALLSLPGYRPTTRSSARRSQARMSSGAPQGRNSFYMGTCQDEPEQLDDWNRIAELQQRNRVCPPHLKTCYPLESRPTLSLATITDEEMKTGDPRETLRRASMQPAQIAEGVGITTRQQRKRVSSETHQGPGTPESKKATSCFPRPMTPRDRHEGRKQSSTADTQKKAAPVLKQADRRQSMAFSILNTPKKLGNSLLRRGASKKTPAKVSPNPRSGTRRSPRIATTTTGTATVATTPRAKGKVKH
UniProt Q9WV02: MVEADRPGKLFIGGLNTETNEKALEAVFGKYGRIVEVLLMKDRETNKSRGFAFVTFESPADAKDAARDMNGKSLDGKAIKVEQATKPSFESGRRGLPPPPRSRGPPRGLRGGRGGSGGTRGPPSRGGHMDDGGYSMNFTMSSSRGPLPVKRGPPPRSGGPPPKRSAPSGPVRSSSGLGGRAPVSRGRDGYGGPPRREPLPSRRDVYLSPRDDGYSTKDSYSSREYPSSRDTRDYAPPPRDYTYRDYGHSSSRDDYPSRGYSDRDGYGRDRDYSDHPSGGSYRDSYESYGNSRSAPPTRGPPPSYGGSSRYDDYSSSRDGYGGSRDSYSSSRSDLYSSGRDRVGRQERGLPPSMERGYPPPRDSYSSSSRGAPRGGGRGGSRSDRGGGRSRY

Target: CDK1 (endogenous, MEF) (mouse (endogenous in MEFs)) (UniProt P11440)
Test: affinity purification with mass spectrometry; anti-CDK1 immunoprecipitation from mitotic lysates of MEF and MEF Pin1-/- cells, silver staining, bands increased in MEFs excised and identified by mass spectrometry

binding, binds:
fibronectin 1 (Fn1) (from UniProt P11276 33-2477)
Ewing sarcoma breakpoint region 1 (EWSR1) (from UniProt Q61545 1-655)
nuclear mitotic apparatus protein (NuMA) (from UniProt E9Q7G0 1-2094)
RNA-binding motif protein, X chromosome (RBMX) (from UniProt Q9WV02 1-391)
